From US6113896A, “Pharmaceutical compositions containing ecotin and homologs thereof” (priority 1994, dated 2000)
Entries after “also recorded” stand apart in the source; their conditions may differ.

Test system: FXa
Assay: Cleavage of ecotin by FXa
Design: species or system human

Ecotin: E. coli periplasmic protein having the 142 amino acid residue sequence reported by McGrath et al.; recombinant, P1 Met84
cleavage of ecotin by FXa (pH 4.0, between Met84 and Met85): slow cleavage; also recorded: cleaves ecotin slowly
cleavage of ecotin by FXa (pH 7.5): much less than that occurring at pH 4.0; also recorded: very little cleavage
